# Data as given in patent publication US20140123342A1, “Regulation of Stomatal Apertures by Apyrases and Extracellular Nucleotides” (BOARD OF REGENTS, THE UNIVERSITY OF TEXAS SYSTEM, priority 2011, published 2014).
# At least one compound was matched to its structure with a doubt left. Some results were stated once for a whole list of compounds, not compound by compound.
# Experiments:
# [1] = tested on: stomata (guard cells) in epidermal peels; assay: Stomatal aperture closure studies, epidermal peels in the light; type: cell-based, Arabidopsis thaliana
# Procedure: (§1) Stomatal Aperture Studies: Arabidopsis thaliana ecotypes Columbia (Col-0) and Wassilewskija (WS) were used as wild types in this study. Col-0, nia1nia2, atrbohD/F, R2-4A and WS plants were all grown on autoclaved Metro-Mix 200 soil at 22° C. under continuous light. The mutant seeds nia1nia2 nia2-5; CS 2356; Col-0 background) were obtained from Dr. N. M. Crawford (University of California at San Diego) and the mutant seeds atrbohD/F (Col-0 background) were obtained from Dr. J. M. Kwak (University of Maryland). The RNAi mutant apyrase line (R2-4A) is in WS background, so WS ecotype was used as the control wild type for these studies. […]
# (§2) For studies testing the effects of ATPγS, ADPγS, AMPS, RB2, and PPADS (Sigma, St. Louis, Mo., USA) 20 mM stocks were made by dissolving the compounds in de-ionized water. […] The concentration of the immune and pre-immune sera, determined by Bradford assay (Bio-Rad), was 10.2 μg/mL and 7.7 μg/mL, respectively.
# (§3) After treatment, photos of stomata were taken using a light microscope at 20×. Stomatal aperture width was measured using the image processing software ImageJ. Typically, photos were taken of 70 to 90 stomata per treatment of which only 50 stomata were measured for each treatment. […] Statistical significance of the measurements for the treatments was determined using the Student's t test in Microsoft Excel.
# [2] = tested on: stomata (guard cells) in epidermal peels; assay: Stomatal aperture opening studies, epidermal peels in the dark; type: cell-based, Arabidopsis thaliana; details: dose-response tests with applied nucleotides, summary statement
# Procedure: as §1, §2, §3
smiles,measurement,setting,value
Nc1ncnc2c1ncn2[C@@H]1O[C@H](COP(=O)(O)OP(=O)(O)OP(O)(O)=S)[C@@H](O)[C@H]1O [ATPγS],concentrations that induce stomatal closure,"[1]; dose-response tests with applied nucleotides, summary statement",150 to 200 µM
same,threshold for nucleotide-induced stomatal closure,"[1]; epidermal peel studies, light",150 and 200
same,concentrations that induce stomatal opening,[2],5 to 15 µM
